Assay [1] has as its target T1, Vav1 (precipitated with Vav1 antibody in the co-IP of Figure 2C) (UniProt P15498).
T1 sequence: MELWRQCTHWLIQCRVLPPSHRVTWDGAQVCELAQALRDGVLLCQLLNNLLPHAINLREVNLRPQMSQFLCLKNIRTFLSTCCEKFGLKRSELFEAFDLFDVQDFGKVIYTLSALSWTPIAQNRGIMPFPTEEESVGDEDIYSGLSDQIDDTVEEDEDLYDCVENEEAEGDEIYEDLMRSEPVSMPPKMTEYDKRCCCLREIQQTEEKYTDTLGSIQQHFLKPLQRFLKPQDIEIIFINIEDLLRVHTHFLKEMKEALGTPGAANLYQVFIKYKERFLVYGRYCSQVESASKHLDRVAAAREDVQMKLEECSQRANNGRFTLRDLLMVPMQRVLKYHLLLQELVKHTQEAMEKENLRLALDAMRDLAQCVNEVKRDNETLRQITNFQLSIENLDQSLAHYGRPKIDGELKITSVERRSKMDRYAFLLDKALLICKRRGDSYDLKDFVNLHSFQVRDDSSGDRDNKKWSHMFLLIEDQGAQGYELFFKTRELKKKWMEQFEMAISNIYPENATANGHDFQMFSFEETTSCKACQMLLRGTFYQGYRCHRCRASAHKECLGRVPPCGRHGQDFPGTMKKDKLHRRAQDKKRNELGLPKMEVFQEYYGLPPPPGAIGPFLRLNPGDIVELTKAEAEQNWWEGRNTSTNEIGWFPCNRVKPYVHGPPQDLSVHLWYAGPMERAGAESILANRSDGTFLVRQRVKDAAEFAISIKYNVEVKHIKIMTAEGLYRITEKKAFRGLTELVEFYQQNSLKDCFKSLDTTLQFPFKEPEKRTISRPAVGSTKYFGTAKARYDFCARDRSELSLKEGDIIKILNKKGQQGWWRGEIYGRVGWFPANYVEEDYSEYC
In words: co-IP; cells overexpressing wild type or ΔYKEP VEGFR1; precipitation with Vav1 antibody; blot for Vav1 and VEGFR1.

By UniProt entry, the sequences of proteins in these tests, tags left out. Residues count along the entry.
UniProt P17948, residues 27-1338: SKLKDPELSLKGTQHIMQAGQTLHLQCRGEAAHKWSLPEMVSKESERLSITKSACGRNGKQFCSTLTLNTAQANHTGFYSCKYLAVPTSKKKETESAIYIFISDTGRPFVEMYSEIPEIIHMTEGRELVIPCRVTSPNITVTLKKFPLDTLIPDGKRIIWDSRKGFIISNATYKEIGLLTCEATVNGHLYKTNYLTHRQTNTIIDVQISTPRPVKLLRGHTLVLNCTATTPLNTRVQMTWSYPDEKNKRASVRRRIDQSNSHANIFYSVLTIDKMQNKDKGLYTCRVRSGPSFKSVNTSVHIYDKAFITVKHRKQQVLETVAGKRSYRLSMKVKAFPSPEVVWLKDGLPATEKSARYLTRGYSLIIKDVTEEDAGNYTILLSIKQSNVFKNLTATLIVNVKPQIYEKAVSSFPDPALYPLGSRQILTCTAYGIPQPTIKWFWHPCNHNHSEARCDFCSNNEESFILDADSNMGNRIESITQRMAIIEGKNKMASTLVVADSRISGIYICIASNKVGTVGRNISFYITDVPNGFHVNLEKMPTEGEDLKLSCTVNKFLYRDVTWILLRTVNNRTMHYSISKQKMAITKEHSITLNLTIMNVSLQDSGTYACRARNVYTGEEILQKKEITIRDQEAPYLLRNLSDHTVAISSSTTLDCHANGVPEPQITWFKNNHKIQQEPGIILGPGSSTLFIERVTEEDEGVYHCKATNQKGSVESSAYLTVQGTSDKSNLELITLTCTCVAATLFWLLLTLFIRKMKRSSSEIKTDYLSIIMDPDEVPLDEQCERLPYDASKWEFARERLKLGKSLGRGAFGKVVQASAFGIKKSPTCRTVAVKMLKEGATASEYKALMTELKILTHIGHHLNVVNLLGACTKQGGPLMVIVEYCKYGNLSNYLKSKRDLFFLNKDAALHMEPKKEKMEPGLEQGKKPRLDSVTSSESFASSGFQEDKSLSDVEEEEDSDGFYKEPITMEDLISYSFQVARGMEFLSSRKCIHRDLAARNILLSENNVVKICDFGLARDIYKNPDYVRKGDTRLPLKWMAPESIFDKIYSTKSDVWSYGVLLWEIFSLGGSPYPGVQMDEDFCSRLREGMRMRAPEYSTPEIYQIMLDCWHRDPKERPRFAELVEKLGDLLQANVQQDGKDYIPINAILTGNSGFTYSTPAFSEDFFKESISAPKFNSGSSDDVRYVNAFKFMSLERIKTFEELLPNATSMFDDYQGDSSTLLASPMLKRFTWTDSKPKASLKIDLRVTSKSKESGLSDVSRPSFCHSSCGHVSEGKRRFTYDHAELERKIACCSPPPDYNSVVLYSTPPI

Assay [2] deals with vascular endothelial growth factor receptor 1 (VEGFR1) (human (endogenous in HUVEC)) (UniProt P17948). In words: co-IP; anti-VEGFR1 antibody or control IgG on HUVEC cell lysate, protein A/G magnetic beads, overnight; blot for Vav1 and VEGFR1.

No constants are given. Whether binding was seen depends on the method and setting. Binding seen in cells or lysates may run through a third protein. Some binding calls cover weakened binding; strength is not graded here.

Consider “Overexpressed wild type VEGFR1 (from UniProt P17948 27-1338) (receptor)”, for which the binding entry in assay [1] is “binds”.

B1: Vav1 (protein, UniProt P15498 1-845)
chain: MELWRQCTHWLIQCRVLPPSHRVTWDGAQVCELAQALRDGVLLCQLLNNLLPHAINLREVNLRPQMSQFLCLKNIRTFLSTCCEKFGLKRSELFEAFDLFDVQDFGKVIYTLSALSWTPIAQNRGIMPFPTEEESVGDEDIYSGLSDQIDDTVEEDEDLYDCVENEEAEGDEIYEDLMRSEPVSMPPKMTEYDKRCCCLREIQQTEEKYTDTLGSIQQHFLKPLQRFLKPQDIEIIFINIEDLLRVHTHFLKEMKEALGTPGAANLYQVFIKYKERFLVYGRYCSQVESASKHLDRVAAAREDVQMKLEECSQRANNGRFTLRDLLMVPMQRVLKYHLLLQELVKHTQEAMEKENLRLALDAMRDLAQCVNEVKRDNETLRQITNFQLSIENLDQSLAHYGRPKIDGELKITSVERRSKMDRYAFLLDKALLICKRRGDSYDLKDFVNLHSFQVRDDSSGDRDNKKWSHMFLLIEDQGAQGYELFFKTRELKKKWMEQFEMAISNIYPENATANGHDFQMFSFEETTSCKACQMLLRGTFYQGYRCHRCRASAHKECLGRVPPCGRHGQDFPGTMKKDKLHRRAQDKKRNELGLPKMEVFQEYYGLPPPPGAIGPFLRLNPGDIVELTKAEAEQNWWEGRNTSTNEIGWFPCNRVKPYVHGPPQDLSVHLWYAGPMERAGAESILANRSDGTFLVRQRVKDAAEFAISIKYNVEVKHIKIMTAEGLYRITEKKAFRGLTELVEFYQQNSLKDCFKSLDTTLQFPFKEPEKRTISRPAVGSTKYFGTAKARYDFCARDRSELSLKEGDIIKILNKKGQQGWWRGEIYGRVGWFPANYVEEDYSEYC
Regarding B1, in assay [2], the binding result is reported as “binds”.

The values above are taken from PMC7352305.
